Measurements from publication PMC10420963, “Exploring Novel Drug Combinations: The Therapeutic Potential of Selanyl Derivatives for Leishmania Treatment” (Molecules, 2023).

Assays:
[1] = test system: L. major promastigotes; test: Leishmanicidal activity against L. major promastigotes (MTT assay); format: cell-based, Leishmania major; settings: ratio CC50 in macrophages / IC50 of L. major parasites
Description: (§1) Promastigotes. L. major (clone VI, MHOM/IL/80) and L. infantum (clone, BCN-150) parasites were cultured at 26 °C under continuous shaking in M199 1× medium (Sigma, St. Louis, MO, USA) supplemented with heat-inactivated fetal bovine serum (FBS), 25 mM HEPES (pH 7), 0.1 mM adenine, 0.0005% (w/v) haemin, […], 0.0005% (w/v) biotin, 100 IU/mL penicillin and […]. For each experiment, the culture medium was changed everyday in order to achieve parasite in exponential growth phase.
(§2) In order to determine the leishmanicidal activity of the compounds obtained in this study, promastigotes of L. major and L. infantum strains were seeded in 96-well plates (3 ×·10^6 parasite/mL) in exponential growth phase at increasing concentrations (1–500 μM) of the compounds and maintained at 26 °C. After 48 h of incubation, the IC50 was determined by MTT assay. The absorbance was measured in a MultiskanEX photometric plate reader for microplates at 540 nm. Data were obtained from three independent experiments performed in triplicate.

[2] = test system: L. infantum promastigotes; test: Leishmanicidal activity against L. infantum promastigotes (MTT assay); format: cell-based, Leishmania infantum; settings: ratio CC50 in macrophages / IC50 of L. infantum parasites
Description: as §1, §2

Row | SMILES | SI L. major [1] | SI L. infantum [2]
1 | O=C(O)C[Se]C(=O)C1CCCCC1 [A8, 2-((cyclohexanecarbonyl)selanyl)acetic acid] | 2 | 
2 | CCCCCCC(=O)[Se]CC(=O)O [A4, 2-(heptanoylselanyl)acetic acid] | 3 | 6
3 | O=C(O)C[Se]C(=O)C1CC1 [A5, 2-((cyclopropanecarbonyl)selanyl)acetic acid] | 2 | 9
4 | O=C(O)C[Se]C(=O)C1CCC1 [A6, 2-((cyclobutanecarbonyl)selanyl)acetic acid] | 3 | 11
